Literature values as cited in patent publication US12358889B2, “Vaporizable alkaloid compositions and methods of use thereof” (Ready Mix Naturals, LLC, priority 2023, dated 2025).
At least one compound was matched to its structure with a doubt left.

Details: listed as Piperine

Question: Which “spiciness or heat (Scoville rating)” value does the source give for O=C(/C=C/C=C/c1ccc2c(c1)OCO2)N1CCCCC1 [piperine] here?
Answer: Piperine (≥97%, crystalline or powder) (100,000 SHU)
